In article PMC5123574, “Redox cofactors insertion in prokaryotic molybdoenzymes occurs via a conserved folding mechanism” (Scientific Reports, 2016):
Results are given in words; binding and its absence hold for the method and conditions named. Some results given as binding are weak or reduced against the parent protein; the word gives no strength. Where a sequence is shown, tags or fusion partners need not be part of it.

T1: NarH, electron-transfer subunit of nitrate reductase A, His-tagged (E. coli) (UniProt P11349)
T1 sequence: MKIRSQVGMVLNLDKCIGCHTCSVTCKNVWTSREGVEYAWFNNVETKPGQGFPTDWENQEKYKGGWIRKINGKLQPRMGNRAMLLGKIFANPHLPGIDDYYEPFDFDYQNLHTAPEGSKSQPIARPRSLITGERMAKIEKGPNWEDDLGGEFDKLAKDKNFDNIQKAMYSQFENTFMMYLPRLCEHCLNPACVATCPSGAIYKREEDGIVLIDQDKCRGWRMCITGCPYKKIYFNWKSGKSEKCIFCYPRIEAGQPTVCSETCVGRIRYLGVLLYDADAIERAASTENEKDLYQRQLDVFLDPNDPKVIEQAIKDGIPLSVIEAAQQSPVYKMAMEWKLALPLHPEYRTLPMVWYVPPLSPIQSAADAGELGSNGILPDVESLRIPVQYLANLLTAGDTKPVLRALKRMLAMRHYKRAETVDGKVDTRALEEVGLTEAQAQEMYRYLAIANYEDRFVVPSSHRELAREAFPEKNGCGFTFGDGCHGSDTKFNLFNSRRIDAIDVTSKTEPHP

T2: NarJ, dedicated chaperone of nitrate reductase A, bacterial two-hybrid fusion (E. coli) (UniProt P0AF26)
T2 sequence: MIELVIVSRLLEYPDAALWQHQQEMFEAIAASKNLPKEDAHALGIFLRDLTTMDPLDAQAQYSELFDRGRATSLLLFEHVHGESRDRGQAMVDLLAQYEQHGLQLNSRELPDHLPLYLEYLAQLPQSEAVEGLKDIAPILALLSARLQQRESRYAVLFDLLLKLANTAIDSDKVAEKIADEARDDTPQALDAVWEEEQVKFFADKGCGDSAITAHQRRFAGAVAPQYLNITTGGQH


Columns and labels:
[1] = target: T1, NarH, electron-transfer subunit of nitrate reductase A, His-tagged (E. coli); assay: co-purification by Ni-affinity chromatography; His-tagged NarGH complex co-expressed in E. coli JCB4023 and purified by Ni-affinity chromatography as in ref. 9
[2] = target: T2, NarJ, dedicated chaperone of nitrate reductase A, bacterial two-hybrid fusion (E. coli); assay: two-hybrid; bacterial two-hybrid by reconstitution of adenylate cyclase activity; NarG forms as prey against NarJ; β-galactosidase activity (Miller units) in cells at mid-log phase, 30 °C, L-broth, 0.5 mM IPTG

Binder | binding [1] | binding [2]
NarG, nitrate-reducing subunit of nitrate reductase A, as co-expressed with His-tagged NarH (enzyme, UniProt P09152 1-1247) MSKFLDRFRYFKQKGETFADGHGQLLNTNRDWEDGYRQRWQHDKIVRSTHGVNCTGSCSWKIYVKNGLVTWETQQTDYPRTRPDLPNHEPRGCPRGASYSWYLYSANRLKYPMMRKRLMKMWREAKALHSDPVEAWASIIEDADKAKSFKQARGRGGFVRSSWQEVNELIAASNVYTIKNYGPDRVAGFSPIPAMSMVSYASGARYLSLIGGTCLSFYDWYCDLPPASPQTWGEQTDVPESADWYNSSYIIAWGSNVPQTRTPDAHFFTEVRYKGTKTVAVTPDYAEIAKLCDLWLAPKQGTDAAMALAMGHVMLREFHLDNPSQYFTDYVRRYTDMPMLVMLEERDGYYAAGRMLRAADLVDALGQENNPEWKTVAFNTNGEMVAPNGSIGFRWGEKGKWNLEQRDGKTGEETELQLSLLGSQDEIAEVGFPYFGGDGTEHFNKVELENVLLHKLPVKRLQLADGSTALVTTVYDLTLANYGLERGLNDVNCATSYDDVKAYTPAWAEQITGVSRSQIIRIAREFADNADKTHGRSMIIVGAGLNHWYHLDMNYRGLINMLIFCGCVGQSGGGWAHYVGQEKLRPQTGWQPLAFALDWQRPARHMNSTSYFYNHSSQWRYETVTAEELLSPMADKSRYTGHLIDFNVRAERMGWLPSAPQLGTNPLTIAGEAEKAGMNPVDYTVKSLKEGSIRFAAEQPENGKNHPRNLFIWRSNLLGSSGKGHEFMLKYLLGTEHGIQGKDLGQQGGVKPEEVDWQDNGLEGKLDLVVTLDFRLSSTCLYSDIILPTATWYEKDDMNTSDMHPFIHPLSAAVDPAWEAKSDWEIYKAIAKKFSEVCVGHLGKETDIVTLPIQHDSAAELAQPLDVKDWKKGECDLIPGKTAPHIMVVERDYPATYERFTSIGPLMEKIGNGGKGIAWNTQSEMDLLRKLNYTKAEGPAKGQPMLNTAIDAAEMILTLAPETNGQVAVKAWAALSEFTGRDHTHLALNKEDEKIRFRDIQAQPRKIISSPTWSGLEDEHVSYNAGYTNVHELIPWRTLSGRQQLYQDHQWMRDFGESLLVYRPPIDTRSVKEVIGQKSNGNQEKALNFLTPHQKWGIHSTYSDNLLMLTLGRGGPVVWLSEADAKDLGIADNDWIEVFNSNGALTARAVVSQRVPAGMTMMYHAQERIVNLPGSEITQQRGGIHNSVTRITPKPTHMIGGYAHLAYGFNYYGTVGSNRDEFVVVRKMKNIDWLDGEGNDQVQESVK | binds | –
NarG R108A, as co-expressed with His-tagged NarH (enzyme, UniProt P09152 1-1247) MSKFLDRFRYFKQKGETFADGHGQLLNTNRDWEDGYRQRWQHDKIVRSTHGVNCTGSCSWKIYVKNGLVTWETQQTDYPRTRPDLPNHEPRGCPRGASYSWYLYSANALKYPMMRKRLMKMWREAKALHSDPVEAWASIIEDADKAKSFKQARGRGGFVRSSWQEVNELIAASNVYTIKNYGPDRVAGFSPIPAMSMVSYASGARYLSLIGGTCLSFYDWYCDLPPASPQTWGEQTDVPESADWYNSSYIIAWGSNVPQTRTPDAHFFTEVRYKGTKTVAVTPDYAEIAKLCDLWLAPKQGTDAAMALAMGHVMLREFHLDNPSQYFTDYVRRYTDMPMLVMLEERDGYYAAGRMLRAADLVDALGQENNPEWKTVAFNTNGEMVAPNGSIGFRWGEKGKWNLEQRDGKTGEETELQLSLLGSQDEIAEVGFPYFGGDGTEHFNKVELENVLLHKLPVKRLQLADGSTALVTTVYDLTLANYGLERGLNDVNCATSYDDVKAYTPAWAEQITGVSRSQIIRIAREFADNADKTHGRSMIIVGAGLNHWYHLDMNYRGLINMLIFCGCVGQSGGGWAHYVGQEKLRPQTGWQPLAFALDWQRPARHMNSTSYFYNHSSQWRYETVTAEELLSPMADKSRYTGHLIDFNVRAERMGWLPSAPQLGTNPLTIAGEAEKAGMNPVDYTVKSLKEGSIRFAAEQPENGKNHPRNLFIWRSNLLGSSGKGHEFMLKYLLGTEHGIQGKDLGQQGGVKPEEVDWQDNGLEGKLDLVVTLDFRLSSTCLYSDIILPTATWYEKDDMNTSDMHPFIHPLSAAVDPAWEAKSDWEIYKAIAKKFSEVCVGHLGKETDIVTLPIQHDSAAELAQPLDVKDWKKGECDLIPGKTAPHIMVVERDYPATYERFTSIGPLMEKIGNGGKGIAWNTQSEMDLLRKLNYTKAEGPAKGQPMLNTAIDAAEMILTLAPETNGQVAVKAWAALSEFTGRDHTHLALNKEDEKIRFRDIQAQPRKIISSPTWSGLEDEHVSYNAGYTNVHELIPWRTLSGRQQLYQDHQWMRDFGESLLVYRPPIDTRSVKEVIGQKSNGNQEKALNFLTPHQKWGIHSTYSDNLLMLTLGRGGPVVWLSEADAKDLGIADNDWIEVFNSNGALTARAVVSQRVPAGMTMMYHAQERIVNLPGSEITQQRGGIHNSVTRITPKPTHMIGGYAHLAYGFNYYGTVGSNRDEFVVVRKMKNIDWLDGEGNDQVQESVK | binds | –
full-length NarG, bacterial two-hybrid fusion (pT25-NarG) (enzyme, UniProt P09152 1-1247) MSKFLDRFRYFKQKGETFADGHGQLLNTNRDWEDGYRQRWQHDKIVRSTHGVNCTGSCSWKIYVKNGLVTWETQQTDYPRTRPDLPNHEPRGCPRGASYSWYLYSANRLKYPMMRKRLMKMWREAKALHSDPVEAWASIIEDADKAKSFKQARGRGGFVRSSWQEVNELIAASNVYTIKNYGPDRVAGFSPIPAMSMVSYASGARYLSLIGGTCLSFYDWYCDLPPASPQTWGEQTDVPESADWYNSSYIIAWGSNVPQTRTPDAHFFTEVRYKGTKTVAVTPDYAEIAKLCDLWLAPKQGTDAAMALAMGHVMLREFHLDNPSQYFTDYVRRYTDMPMLVMLEERDGYYAAGRMLRAADLVDALGQENNPEWKTVAFNTNGEMVAPNGSIGFRWGEKGKWNLEQRDGKTGEETELQLSLLGSQDEIAEVGFPYFGGDGTEHFNKVELENVLLHKLPVKRLQLADGSTALVTTVYDLTLANYGLERGLNDVNCATSYDDVKAYTPAWAEQITGVSRSQIIRIAREFADNADKTHGRSMIIVGAGLNHWYHLDMNYRGLINMLIFCGCVGQSGGGWAHYVGQEKLRPQTGWQPLAFALDWQRPARHMNSTSYFYNHSSQWRYETVTAEELLSPMADKSRYTGHLIDFNVRAERMGWLPSAPQLGTNPLTIAGEAEKAGMNPVDYTVKSLKEGSIRFAAEQPENGKNHPRNLFIWRSNLLGSSGKGHEFMLKYLLGTEHGIQGKDLGQQGGVKPEEVDWQDNGLEGKLDLVVTLDFRLSSTCLYSDIILPTATWYEKDDMNTSDMHPFIHPLSAAVDPAWEAKSDWEIYKAIAKKFSEVCVGHLGKETDIVTLPIQHDSAAELAQPLDVKDWKKGECDLIPGKTAPHIMVVERDYPATYERFTSIGPLMEKIGNGGKGIAWNTQSEMDLLRKLNYTKAEGPAKGQPMLNTAIDAAEMILTLAPETNGQVAVKAWAALSEFTGRDHTHLALNKEDEKIRFRDIQAQPRKIISSPTWSGLEDEHVSYNAGYTNVHELIPWRTLSGRQQLYQDHQWMRDFGESLLVYRPPIDTRSVKEVIGQKSNGNQEKALNFLTPHQKWGIHSTYSDNLLMLTLGRGGPVVWLSEADAKDLGIADNDWIEVFNSNGALTARAVVSQRVPAGMTMMYHAQERIVNLPGSEITQQRGGIHNSVTRITPKPTHMIGGYAHLAYGFNYYGTVGSNRDEFVVVRKMKNIDWLDGEGNDQVQESVK | – | binds
NarG(Δ1-41), bacterial two-hybrid fusion (pT25-NarG(Δ1–41)) (domain or fragment, UniProt P09152 42-1247) HDKIVRSTHGVNCTGSCSWKIYVKNGLVTWETQQTDYPRTRPDLPNHEPRGCPRGASYSWYLYSANRLKYPMMRKRLMKMWREAKALHSDPVEAWASIIEDADKAKSFKQARGRGGFVRSSWQEVNELIAASNVYTIKNYGPDRVAGFSPIPAMSMVSYASGARYLSLIGGTCLSFYDWYCDLPPASPQTWGEQTDVPESADWYNSSYIIAWGSNVPQTRTPDAHFFTEVRYKGTKTVAVTPDYAEIAKLCDLWLAPKQGTDAAMALAMGHVMLREFHLDNPSQYFTDYVRRYTDMPMLVMLEERDGYYAAGRMLRAADLVDALGQENNPEWKTVAFNTNGEMVAPNGSIGFRWGEKGKWNLEQRDGKTGEETELQLSLLGSQDEIAEVGFPYFGGDGTEHFNKVELENVLLHKLPVKRLQLADGSTALVTTVYDLTLANYGLERGLNDVNCATSYDDVKAYTPAWAEQITGVSRSQIIRIAREFADNADKTHGRSMIIVGAGLNHWYHLDMNYRGLINMLIFCGCVGQSGGGWAHYVGQEKLRPQTGWQPLAFALDWQRPARHMNSTSYFYNHSSQWRYETVTAEELLSPMADKSRYTGHLIDFNVRAERMGWLPSAPQLGTNPLTIAGEAEKAGMNPVDYTVKSLKEGSIRFAAEQPENGKNHPRNLFIWRSNLLGSSGKGHEFMLKYLLGTEHGIQGKDLGQQGGVKPEEVDWQDNGLEGKLDLVVTLDFRLSSTCLYSDIILPTATWYEKDDMNTSDMHPFIHPLSAAVDPAWEAKSDWEIYKAIAKKFSEVCVGHLGKETDIVTLPIQHDSAAELAQPLDVKDWKKGECDLIPGKTAPHIMVVERDYPATYERFTSIGPLMEKIGNGGKGIAWNTQSEMDLLRKLNYTKAEGPAKGQPMLNTAIDAAEMILTLAPETNGQVAVKAWAALSEFTGRDHTHLALNKEDEKIRFRDIQAQPRKIISSPTWSGLEDEHVSYNAGYTNVHELIPWRTLSGRQQLYQDHQWMRDFGESLLVYRPPIDTRSVKEVIGQKSNGNQEKALNFLTPHQKWGIHSTYSDNLLMLTLGRGGPVVWLSEADAKDLGIADNDWIEVFNSNGALTARAVVSQRVPAGMTMMYHAQERIVNLPGSEITQQRGGIHNSVTRITPKPTHMIGGYAHLAYGFNYYGTVGSNRDEFVVVRKMKNIDWLDGEGNDQVQESVK | – | binds
